Results reported in PubChem BioAssay AID504444 (National Center for Advancing Translational Sciences (NCATS), 2011).
Several values for one entry are separate records, joined by “and”; a condition that tells them apart may be missing. Equal values may be shown once. The whole screen tested about 360,000 compounds, of which about 7,500 (2.1%) were called active. Inconclusive results, whose numbers are uncertain, are shown with a selection of clear calls. Calls follow the shape of the dose curve; as a rule, active = well fitted inhibition curve with a large enough effect; inconclusive = small, poorly fitted or top-dose-only effect, or effect the other way; inactive = flat fitted curve, though single readings scatter. Potencies of inconclusive entries are doubtful fits and often do not repeat.

Assay: Nrf2 qHTS screen for inhibitors; also: nearly all actives have a fitted effect of over 60% in size
Details: A549 ARE-Fluc reporter, luciferase luminescence, 18-24 h; activity change, negative = inhibition: at 46 µM (top of the series)
How it was run: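 Reporter: ARE-Fluc in A549. Exposure: 18-24 h, 37 °C, 5% CO2, 5% FBS OPTI-MEM. Readouts: fluorescent cytotoxicity (CellTiter-Fluor), then luminescent Nrf2 signal after BugLite.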
% is scaled to controls: 0 for no effect and ±100 for the full control effect; potency is read from the fitted curve at half-maximal effect.

SMILES	Potency	activity change, negative = inhibition
CC(CNC(=O)c1cc2ccccn2n1)c1ccccc1 (stereo not drawn)	inconclusive: 14.6 µM [falling, single point]	
COc1ccc(Cl)cc1NC(=O)c1cc2nc(-c3ccc(C)cc3)cc(C(F)(F)F)n2n1	inconclusive: 1.46 µM [falling, full curve, poor fit]	
Cc1ccc(S(=O)(=O)Oc2ccccc2N2C(=O)C3CC=CCC3C2=O)cc1 (stereo not drawn)	inconclusive: 1.84 µM [falling, partial curve, poor fit]	
O=C(Nc1sc2c(c1C(=O)O)CCC2)c1ccccc1F	inconclusive: 29.1 µM [falling, single point]	
O=C(COC(=O)c1cc(Br)ccc1O)NNC(=O)c1ccc([N+](=O)[O-])cc1	inconclusive: 16.4 µM [falling, partial curve, poor fit]	
COc1ccc(OC)c(C(=O)c2nc3c(n2O)CCCCC3)c1	inconclusive: 10.3 µM [activator, partial curve, poor fit]	
Cc1noc(C(=O)Nc2ccc(C#N)cc2)c1Cl	inconclusive: 5.8 µM [activator, full curve]	
CCn1cc(C(=O)N2CCCC(CO)(Cc3ccccc3C)C2)cn1 (stereo not drawn)	inconclusive: 29.1 µM [activator, single point]	
COc1cccc(CN(C)C(=O)C2CCN(S(=O)(=O)c3ccc(C)cc3)CC2)c1OC	inconclusive: 20.6 µM [falling, partial curve, poor fit]	
CCNC(=S)N/N=C/c1ccc(OCC(=O)Nc2ccc(C)cc2)cc1	inconclusive: 1.84 µM [falling, full curve, poor fit]	
CN(C)Cc1c(C(=O)N/N=C/c2ccccc2OCc2c(F)cccc2Cl)nnn1-c1nonc1N	inactive	
Cc1ccc([N+](=O)[O-])cc1N/C=C/C(=O)c1ccco1	inconclusive: 29.1 µM [falling, single point]	
O=C(NCc1nc2ccccc2[nH]1)C1=C[C@@H](C2CCCCC2)C[C@@H](OCc2ccc(CO)cc2)O1	inconclusive: 18.4 µM [falling, single point]	
C/C(=N\NC(=O)Cc1ccccc1)c1ccc(Cl)s1	inconclusive: 5.17 µM [activator, full curve]	
COc1ccc(/C(N)=N/OC(=O)CSc2ccccc2)cc1OC	inconclusive: 13 µM [activator, partial curve]	
Cc1cc(C)nc(Nc2n[nH]c(-c3ccc(N)cc3)n2)n1	inconclusive: 0.731 µM [activator, full curve]	
CCOc1ccc(C(=O)NCC(=O)Nc2ccc3c(c2)OCO3)cc1OCC	inconclusive: 9.2 µM [activator, partial curve, poor fit]	
Cc1ccc(-c2csc(NC(=O)CSc3nnc4c(n3)[nH]c3ccccc34)n2)cc1	inconclusive: 7.31 µM [falling, partial curve]	
COc1ccc(C2=NN(c3ccccc3)C(=O)/C2=C\c2ccc(O)c(OC)c2)cc1	inconclusive: 5.8 µM [activator, full curve]	
Cc1ccc(Nc2nc(-c3ccc(F)cc3)cs2)nc1	inconclusive: 10.3 µM [activator, partial curve]	
Cc1ccn2c(-c3csc(NCc4ccccc4)n3)c(C)nc2c1	active: 25.9 µM	

Taken from the listing for reference:
SMILES	Potency	activity change, negative = inhibition
O=C(COC(=O)c1cc(Br)ccc1O)NNC(=O)c1ccc([N+](=O)[O-])cc1	inconclusive: 16.4 µM [falling, partial curve, poor fit]	
COc1ccc(OC)c(C(=O)c2nc3c(n2O)CCCCC3)c1	inconclusive: 10.3 µM [activator, partial curve, poor fit]	
Cc1noc(C(=O)Nc2ccc(C#N)cc2)c1Cl	inconclusive: 5.8 µM [activator, full curve]	

Further records

SMILES	Potency	activity change, negative = inhibition
O=C(CCc1nc2ccccc2c(=O)[nH]1)N1CCN(S(=O)(=O)c2cc(Cl)ccc2Cl)CC1	inconclusive: 13 µM [falling, partial curve]	
O=C(Cn1cnc2sc3c(c2c1=O)CCCC3)NCC(=O)Nc1c(F)cc(F)cc1Br	inconclusive: 23.1 µM [activator, partial curve, poor fit]	
Cc1nc2ccc(NC(=O)c3nn(CC(C)C)c(=O)c4ccccc34)cc2s1	inconclusive: 23.1 µM [falling, partial curve]	
COc1ccc(NC(=O)C2CCCN(S(=O)(=O)c3cccnc3)C2)c(OC)c1 (stereo not drawn)	inconclusive: 0.103 µM [falling, partial curve, poor fit]	
CCOc1ccccc1CNC(=O)c1cc2oc3ccccc3c2n1CC	inactive and inconclusive: 16.4 µM [activator, partial curve]	
CC(=NNC(=S)N(Cc1ccccn1)Cc1ccccn1)c1cnccn1	inconclusive: 6.51 µM [falling, single point]	
O=c1oc2ccc(NS(=O)(=O)c3cccc4cccnc34)cc2s1	inconclusive: 0.184 µM [activator, full curve, poor fit]	
CC(=O)c1c(C)[nH]c(C(=O)CSc2nc3ccccc3n2C)c1C	active: 14.6 µM	
N#CC1=C(N)NC(SCc2ccccc2)=C(C#N)C12CCCCC2	inconclusive: 14.6 µM [falling, partial curve, poor fit]	
CC(CCc1ccco1)NC(=O)c1cc2c(-c3ccccc3F)nn(C)c2s1 (stereo not drawn)	inconclusive: 18.4 µM [falling, single point]	
CCOc1ccccc1N1CCN(S(=O)(=O)c2ccc3c4c(cccc24)C(=O)N3)CC1	inconclusive: 29.1 µM [falling, single point]	
Cc1cccc(-n2c(SCC(N)=O)nnc2-c2ccco2)c1	inconclusive: 5.8 µM [falling, single point]	
CCOc1cc(-c2nc(-c3ccc(C)nc3OC)no2)cc(OCC)c1OCC	inactive	
Cc1ccc(Nc2nc(N)nc(CC#N)n2)cc1	inconclusive: 7.31 µM [activator, partial curve, poor fit]	
NC(=O)CC(NC(=O)Cc1cccc2ccccc12)c1ccc(NC2CCCCC2)c([N+](=O)[O-])c1 (stereo not drawn)	inconclusive: 2.91 µM [falling, full curve, poor fit]	
Fc1ccc(Nc2nc(-c3ccc(F)cc3)c3c(n2)-c2ccccc2OC3)cc1	inconclusive: 29.1 µM [activator, single point]	
Cc1sc2c(c1C)c(=O)n(-c1ccc(Cl)cc1)c(=O)n2CC(=O)c1ccccc1		inactive: -7.99% [at 9.27 µM]
Cc1cccc(-c2nnc3n2N=C(c2ccccc2)CS3)c1	inconclusive: 14.6 µM [falling, partial curve, poor fit]	
CCOc1ncccc1C(=O)Nc1cccc(S(=O)(=O)N2CCCCC2)c1	inconclusive: 29.1 µM [falling, single point]	
CC(=CC(=O)c1ccccc1)c1ccccc1	inconclusive: 18.4 µM [activator, single point]	
CCOc1ccc(-c2nnc3ccc(SC(C)C)nn23)cc1	inconclusive: 29.1 µM [falling, single point]	

SMILES	Potency	activity change, negative = inhibition
CNS(=O)(=O)c1cc2c3c(cccc3c1)C(=O)NC2=O	inconclusive: 23.1 µM [falling, partial curve, poor fit]	
CSC(=Nc1ccccc1)N=C(SCc1ccccc1)N(C)C	inconclusive: 25.9 µM [falling, single point]	
O=C1CC(c2ccccc2)=NN1c1ccccc1	inconclusive: 29.1 µM [falling, single point]	
Cc1cccc(NC(=O)CSc2c3c(nc4ccccc24)CCC3)n1	inconclusive: 29.1 µM [activator, single point]	
CCC(C)Sc1cccc(-c2nc3cc(C)ccn3c2NCc2ccccc2)c1 (stereo not drawn)	inactive	
Cc1nc(NC(=S)Nc2ccccc2)sc1C	inconclusive: 7.31 µM [activator, partial curve]	
O=C(COc1cccc(OC(F)F)c1)Nc1ccc(SC(F)F)cc1	inconclusive: 36.6 µM [falling, partial curve, poor fit]	
CC1CCc2nc(NC(=O)Cc3ccc(Cl)cc3)sc2C1 (stereo not drawn)	inactive	
Cc1cc2c(cc1S(=O)(=O)CCC(=O)N(C)Cc1ccccc1)OCC(=O)N2	inconclusive: 16.4 µM [falling, partial curve, poor fit]	
C#Cc1ccc(CN2CCC(Oc3ccc(C(=O)NCc4ccccn4)cc3)CC2)cc1	inconclusive: 7.31 µM [falling, partial curve, poor fit]	
CC(=O)Nc1cccc(C(=O)N2CCN(S(=O)(=O)c3ccc(C4CCCCC4)cc3)CC2)c1	inconclusive: 29.1 µM [falling, single point]	
COc1ccc(C(=O)OCCN=C2NS(=O)(=O)c3ccccc32)cc1OC	inconclusive: 7.31 µM [falling, partial curve, poor fit]	
COc1cccc(NC(=O)CNC(=O)c2cccs2)c1	inconclusive: 23.1 µM [activator, single point]	
O=C(CSCc1c(Cl)cccc1Cl)N1CCOCC1	inconclusive: 23.1 µM [activator, single point]	
Cc1cccc(-c2cc(N)n(-c3ccccc3)n2)c1	inconclusive: 1.03 µM [activator, full curve]	
Cc1cc(=O)oc2cc(OCc3ccc(S(=O)(=O)N4CCOCC4)cc3)ccc12	inconclusive: 14.6 µM [falling, partial curve, poor fit]	
CCOC(=O)C1=C(C)NC(=S)N(C(C)=O)C1c1ccccc1 (stereo not drawn)	inconclusive: 29.1 µM [falling, single point]	
COc1ccc2c(CC(=O)Nc3ncc(C)s3)coc2c1	inconclusive: 29.1 µM [falling, single point]	
CCc1nnc(NC(=O)CSc2nc(C)cs2)s1	inconclusive: 14.6 µM [activator, partial curve, poor fit]	
COCc1cc(=O)n2[nH]c(-c3ccc(C)cc3)cc2n1	inactive	
O=C(OCC1CCCO1)c1ccc2c(c1)N(Cc1cccc(F)c1)C(=O)c1ccccc1S2(=O)=O (stereo not drawn)	inconclusive: 29.1 µM [activator, single point]	
